Results from US20260139263A1 (IOWA STATE UNIVERSITY RESEARCH FOUNDATION, published 2026).
No constants are given. Whether binding was seen depends on the method and setting. Binding seen in cells or lysates may run through a third protein. Some binding calls cover weakened binding; strength is not graded here. Sequences can lack the tags named with a protein.

Target: T1, recombinant AtNF-YC4 (full-length), tagged, for pull-down (Arabidopsis thaliana) (UniProt Q9FMV5)
T1 sequence (looked up): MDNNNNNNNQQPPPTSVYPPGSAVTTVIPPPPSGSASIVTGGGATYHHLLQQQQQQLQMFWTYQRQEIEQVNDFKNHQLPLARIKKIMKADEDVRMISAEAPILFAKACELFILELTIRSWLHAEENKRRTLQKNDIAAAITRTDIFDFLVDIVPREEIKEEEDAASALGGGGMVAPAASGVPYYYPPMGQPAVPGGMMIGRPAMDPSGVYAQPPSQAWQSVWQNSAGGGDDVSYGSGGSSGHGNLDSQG
Experiment: GST pull-down, immunoblot

binding: binds
B1: GST-QQS fusion protein (protein, not shown: a dimerising Fc or GST)
chain: MKTNREQEIYVERSFKPNNSTIQNLMDIERFILPHTSTSGVARLKMRVISWVGLQFYNY
